The other results are listed elsewhere or left out.
Legend:
Test in all cases: log2 fold change, soluble protein after heating vs DMSO (PISA); higher = thermal stabilisation; K562 cells, 10 uM, 30 min; active = over 0.2 and 3.5 SD of the protein, either way, in both replicates (recomputed)
[1] = compound: C1=CC=C(C=C1)[C@H](COC2=CC3=C(C=C2)NC(=O)N3)NC(=O)C4=CC=CN(C4=O)CC5=CC(=C(C=C5)F)F
Procedure, shortened: (§1)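 K562 cells (2×10^6 cells/mL) were treated with 10 μM compound for 30 min, and aliquots were heated for 3 min over 48°C-58°C. Pooled aliquots were extracted in PBS with 0.5% NP-40 at 4°C, and the supernatant after 21,000xg for 90 min was measured by TMTpro 16plex LC-MS/MS with channel sums equalised. Reported thermal stability, relative to control samples and from duplicates, is a log2 fold change.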

Protein sequences, listed by entry. Tags and fused reporters are not part of them. Lines headed by an entry give the natural chain unless they say otherwise; changes in a name come on top.
UniProt Q6ZU80: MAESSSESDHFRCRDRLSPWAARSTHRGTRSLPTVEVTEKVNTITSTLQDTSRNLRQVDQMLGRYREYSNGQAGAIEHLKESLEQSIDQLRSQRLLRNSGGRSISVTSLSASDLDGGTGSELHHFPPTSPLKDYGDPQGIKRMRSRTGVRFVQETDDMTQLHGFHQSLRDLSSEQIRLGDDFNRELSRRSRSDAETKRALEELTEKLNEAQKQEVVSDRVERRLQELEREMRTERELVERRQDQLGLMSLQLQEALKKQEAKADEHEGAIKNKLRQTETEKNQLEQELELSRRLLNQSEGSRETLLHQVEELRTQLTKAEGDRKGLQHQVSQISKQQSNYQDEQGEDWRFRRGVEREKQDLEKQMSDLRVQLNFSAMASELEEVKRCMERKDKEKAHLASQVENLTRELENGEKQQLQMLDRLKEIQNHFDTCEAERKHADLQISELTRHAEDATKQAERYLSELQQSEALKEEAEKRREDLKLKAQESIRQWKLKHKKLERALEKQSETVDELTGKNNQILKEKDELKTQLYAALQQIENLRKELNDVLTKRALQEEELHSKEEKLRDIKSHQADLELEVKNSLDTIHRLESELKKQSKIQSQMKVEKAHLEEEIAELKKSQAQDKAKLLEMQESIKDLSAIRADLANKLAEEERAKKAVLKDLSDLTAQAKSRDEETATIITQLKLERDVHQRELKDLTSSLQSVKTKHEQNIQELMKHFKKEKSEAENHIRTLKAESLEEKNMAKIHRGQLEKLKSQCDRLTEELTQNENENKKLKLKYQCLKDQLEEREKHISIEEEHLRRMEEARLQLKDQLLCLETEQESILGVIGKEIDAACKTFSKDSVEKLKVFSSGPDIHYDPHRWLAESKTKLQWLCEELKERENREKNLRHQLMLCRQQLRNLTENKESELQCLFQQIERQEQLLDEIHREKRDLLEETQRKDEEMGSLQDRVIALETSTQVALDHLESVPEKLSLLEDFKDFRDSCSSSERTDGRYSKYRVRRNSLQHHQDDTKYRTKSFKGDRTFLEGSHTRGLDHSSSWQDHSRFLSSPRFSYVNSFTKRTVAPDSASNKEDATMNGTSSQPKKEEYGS
UniProt Q99618: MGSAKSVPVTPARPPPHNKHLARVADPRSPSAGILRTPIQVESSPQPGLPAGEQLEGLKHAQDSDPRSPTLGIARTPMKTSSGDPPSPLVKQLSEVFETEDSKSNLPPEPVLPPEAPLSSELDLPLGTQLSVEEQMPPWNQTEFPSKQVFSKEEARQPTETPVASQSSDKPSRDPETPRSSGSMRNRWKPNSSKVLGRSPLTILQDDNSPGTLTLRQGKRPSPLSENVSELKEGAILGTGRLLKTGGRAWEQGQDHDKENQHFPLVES
UniProt Q96JB5: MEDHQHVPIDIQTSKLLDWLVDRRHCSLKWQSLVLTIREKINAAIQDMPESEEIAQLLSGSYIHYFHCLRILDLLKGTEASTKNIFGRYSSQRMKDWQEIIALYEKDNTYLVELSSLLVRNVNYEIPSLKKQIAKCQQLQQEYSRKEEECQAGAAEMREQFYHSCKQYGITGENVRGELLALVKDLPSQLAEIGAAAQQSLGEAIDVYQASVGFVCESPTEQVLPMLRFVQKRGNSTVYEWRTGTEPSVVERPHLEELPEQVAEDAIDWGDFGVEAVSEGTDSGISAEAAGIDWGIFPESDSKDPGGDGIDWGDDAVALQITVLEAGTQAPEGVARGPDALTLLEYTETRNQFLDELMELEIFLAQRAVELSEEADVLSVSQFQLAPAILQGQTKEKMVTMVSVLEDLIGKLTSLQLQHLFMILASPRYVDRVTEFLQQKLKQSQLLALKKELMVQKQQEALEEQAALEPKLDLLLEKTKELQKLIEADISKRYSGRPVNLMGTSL
UniProt Q9BU64: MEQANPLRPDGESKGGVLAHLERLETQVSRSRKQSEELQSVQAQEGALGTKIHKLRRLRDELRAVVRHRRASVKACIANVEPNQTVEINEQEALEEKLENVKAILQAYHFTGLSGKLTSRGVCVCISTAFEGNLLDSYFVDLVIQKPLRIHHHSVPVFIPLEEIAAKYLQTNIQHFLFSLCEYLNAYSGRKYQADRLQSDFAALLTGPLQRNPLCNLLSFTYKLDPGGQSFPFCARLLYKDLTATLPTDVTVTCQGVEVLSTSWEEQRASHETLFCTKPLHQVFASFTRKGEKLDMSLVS
UniProt P42773: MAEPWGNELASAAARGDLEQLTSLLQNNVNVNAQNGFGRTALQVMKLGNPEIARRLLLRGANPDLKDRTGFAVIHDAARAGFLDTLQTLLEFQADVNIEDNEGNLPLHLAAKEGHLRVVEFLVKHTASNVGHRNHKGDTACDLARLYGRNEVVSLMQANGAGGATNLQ
UniProt P57076: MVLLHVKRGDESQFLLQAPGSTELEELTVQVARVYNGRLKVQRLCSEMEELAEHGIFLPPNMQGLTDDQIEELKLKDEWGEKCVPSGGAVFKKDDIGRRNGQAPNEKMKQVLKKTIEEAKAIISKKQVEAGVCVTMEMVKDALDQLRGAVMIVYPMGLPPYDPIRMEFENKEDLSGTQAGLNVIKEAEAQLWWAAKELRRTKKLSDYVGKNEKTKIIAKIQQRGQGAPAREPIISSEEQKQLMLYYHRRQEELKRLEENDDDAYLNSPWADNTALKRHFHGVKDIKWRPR
UniProt Q9Y6A4: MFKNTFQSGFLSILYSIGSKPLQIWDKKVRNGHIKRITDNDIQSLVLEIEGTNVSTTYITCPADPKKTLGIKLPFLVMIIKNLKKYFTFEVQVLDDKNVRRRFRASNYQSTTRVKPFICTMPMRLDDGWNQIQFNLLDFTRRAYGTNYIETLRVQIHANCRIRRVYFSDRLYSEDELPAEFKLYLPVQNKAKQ
UniProt P49918: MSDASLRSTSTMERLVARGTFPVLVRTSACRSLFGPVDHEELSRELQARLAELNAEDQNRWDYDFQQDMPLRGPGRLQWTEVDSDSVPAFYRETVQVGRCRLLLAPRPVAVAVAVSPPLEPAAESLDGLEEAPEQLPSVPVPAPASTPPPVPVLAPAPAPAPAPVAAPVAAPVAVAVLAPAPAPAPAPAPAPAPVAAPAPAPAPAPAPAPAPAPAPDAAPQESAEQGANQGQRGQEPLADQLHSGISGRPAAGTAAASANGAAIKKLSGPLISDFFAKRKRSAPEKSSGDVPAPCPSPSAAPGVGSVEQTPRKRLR
UniProt Q6ZMG9: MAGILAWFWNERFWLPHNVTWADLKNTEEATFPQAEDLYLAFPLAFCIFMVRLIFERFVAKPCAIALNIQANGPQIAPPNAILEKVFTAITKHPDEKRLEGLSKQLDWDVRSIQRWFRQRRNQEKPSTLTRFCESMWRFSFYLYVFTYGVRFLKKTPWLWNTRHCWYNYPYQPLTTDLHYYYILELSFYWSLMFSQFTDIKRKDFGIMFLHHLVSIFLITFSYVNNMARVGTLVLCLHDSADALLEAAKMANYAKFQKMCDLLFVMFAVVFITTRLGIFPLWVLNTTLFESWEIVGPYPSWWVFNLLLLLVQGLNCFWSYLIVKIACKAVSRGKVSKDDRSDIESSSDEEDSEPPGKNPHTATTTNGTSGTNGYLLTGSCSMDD
UniProt Q9H3R5: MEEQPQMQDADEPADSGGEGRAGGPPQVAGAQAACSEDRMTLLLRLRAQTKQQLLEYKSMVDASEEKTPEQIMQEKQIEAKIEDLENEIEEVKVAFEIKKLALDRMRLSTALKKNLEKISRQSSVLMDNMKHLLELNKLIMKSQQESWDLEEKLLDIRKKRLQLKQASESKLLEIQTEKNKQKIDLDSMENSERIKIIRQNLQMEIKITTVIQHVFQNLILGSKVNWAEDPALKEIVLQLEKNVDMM
UniProt Q9NRR3: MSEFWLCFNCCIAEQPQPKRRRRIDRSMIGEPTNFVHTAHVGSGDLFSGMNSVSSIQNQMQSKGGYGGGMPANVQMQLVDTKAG
UniProt Q96FF9: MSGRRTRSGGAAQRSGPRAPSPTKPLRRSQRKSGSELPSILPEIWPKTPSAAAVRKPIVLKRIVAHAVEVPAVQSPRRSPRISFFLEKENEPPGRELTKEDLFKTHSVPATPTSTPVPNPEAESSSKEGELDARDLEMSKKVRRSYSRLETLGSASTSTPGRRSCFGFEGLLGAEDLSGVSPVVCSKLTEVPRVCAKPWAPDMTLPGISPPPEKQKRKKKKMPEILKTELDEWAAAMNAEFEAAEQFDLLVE
UniProt Q9Y259: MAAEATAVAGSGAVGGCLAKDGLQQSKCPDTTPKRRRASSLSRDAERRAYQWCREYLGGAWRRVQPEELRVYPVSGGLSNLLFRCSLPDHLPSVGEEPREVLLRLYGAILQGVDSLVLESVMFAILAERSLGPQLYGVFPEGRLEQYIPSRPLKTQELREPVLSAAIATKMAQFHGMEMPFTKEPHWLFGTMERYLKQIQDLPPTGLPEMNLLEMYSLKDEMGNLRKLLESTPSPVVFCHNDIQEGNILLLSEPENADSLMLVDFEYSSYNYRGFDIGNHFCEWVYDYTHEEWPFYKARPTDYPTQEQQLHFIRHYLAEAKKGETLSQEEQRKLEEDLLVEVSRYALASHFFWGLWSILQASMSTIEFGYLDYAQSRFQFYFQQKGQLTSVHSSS
UniProt Q14839: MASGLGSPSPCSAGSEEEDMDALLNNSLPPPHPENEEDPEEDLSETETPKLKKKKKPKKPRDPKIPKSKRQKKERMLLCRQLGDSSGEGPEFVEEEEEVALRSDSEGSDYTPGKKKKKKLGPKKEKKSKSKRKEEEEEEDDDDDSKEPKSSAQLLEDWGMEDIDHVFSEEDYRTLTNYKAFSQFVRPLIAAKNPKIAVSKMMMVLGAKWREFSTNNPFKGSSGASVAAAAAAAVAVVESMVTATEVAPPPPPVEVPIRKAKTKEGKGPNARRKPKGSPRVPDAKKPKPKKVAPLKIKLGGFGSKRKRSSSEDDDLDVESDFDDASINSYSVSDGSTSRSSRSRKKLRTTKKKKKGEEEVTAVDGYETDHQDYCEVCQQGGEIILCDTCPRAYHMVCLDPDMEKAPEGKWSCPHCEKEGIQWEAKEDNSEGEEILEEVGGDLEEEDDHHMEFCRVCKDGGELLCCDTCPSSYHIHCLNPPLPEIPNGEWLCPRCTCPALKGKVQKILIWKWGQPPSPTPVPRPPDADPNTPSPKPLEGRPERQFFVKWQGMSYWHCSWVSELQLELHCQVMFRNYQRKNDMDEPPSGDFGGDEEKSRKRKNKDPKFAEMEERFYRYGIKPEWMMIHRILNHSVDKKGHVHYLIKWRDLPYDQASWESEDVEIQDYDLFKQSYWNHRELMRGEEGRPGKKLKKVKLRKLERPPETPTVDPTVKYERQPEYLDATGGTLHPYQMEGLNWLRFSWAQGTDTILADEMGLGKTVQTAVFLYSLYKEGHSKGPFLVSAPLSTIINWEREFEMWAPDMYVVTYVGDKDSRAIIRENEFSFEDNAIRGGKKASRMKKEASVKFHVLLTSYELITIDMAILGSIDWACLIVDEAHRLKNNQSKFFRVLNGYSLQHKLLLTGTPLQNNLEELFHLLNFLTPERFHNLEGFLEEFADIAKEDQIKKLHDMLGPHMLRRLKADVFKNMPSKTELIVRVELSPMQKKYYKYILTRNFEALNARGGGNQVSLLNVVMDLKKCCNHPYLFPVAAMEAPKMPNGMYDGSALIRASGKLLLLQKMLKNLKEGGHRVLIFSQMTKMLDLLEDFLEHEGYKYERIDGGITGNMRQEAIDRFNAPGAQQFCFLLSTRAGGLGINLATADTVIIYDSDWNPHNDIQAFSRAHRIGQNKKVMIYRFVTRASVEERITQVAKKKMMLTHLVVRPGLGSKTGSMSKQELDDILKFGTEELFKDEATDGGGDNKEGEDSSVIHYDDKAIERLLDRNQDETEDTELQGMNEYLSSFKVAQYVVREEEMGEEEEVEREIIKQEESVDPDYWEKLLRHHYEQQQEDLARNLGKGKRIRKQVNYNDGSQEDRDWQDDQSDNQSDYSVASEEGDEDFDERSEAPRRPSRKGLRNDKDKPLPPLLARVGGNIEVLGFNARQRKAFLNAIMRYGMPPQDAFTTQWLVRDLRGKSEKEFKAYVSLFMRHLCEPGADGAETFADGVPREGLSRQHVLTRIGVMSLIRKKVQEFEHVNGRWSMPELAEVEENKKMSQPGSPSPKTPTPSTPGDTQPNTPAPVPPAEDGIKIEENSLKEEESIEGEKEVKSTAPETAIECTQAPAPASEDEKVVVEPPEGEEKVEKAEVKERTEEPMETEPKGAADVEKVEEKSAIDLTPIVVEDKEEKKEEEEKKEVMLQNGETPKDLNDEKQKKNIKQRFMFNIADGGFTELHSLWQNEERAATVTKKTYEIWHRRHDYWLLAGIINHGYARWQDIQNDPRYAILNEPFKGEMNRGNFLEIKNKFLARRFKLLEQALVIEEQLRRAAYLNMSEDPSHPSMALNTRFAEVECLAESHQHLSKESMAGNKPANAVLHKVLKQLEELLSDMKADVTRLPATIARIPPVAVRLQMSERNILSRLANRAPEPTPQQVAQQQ
UniProt P23528, whole entry, looked up: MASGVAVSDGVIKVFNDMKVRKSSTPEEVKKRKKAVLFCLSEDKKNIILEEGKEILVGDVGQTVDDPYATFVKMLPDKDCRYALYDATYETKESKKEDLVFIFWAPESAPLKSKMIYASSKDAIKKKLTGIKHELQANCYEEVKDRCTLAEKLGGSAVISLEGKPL

[2] = compound: CC1=C(SC2=C1C(=N[C@H](C3=NN=C(N32)C)CC(=O)N)C4=CC=C(C=C4)Cl)C
Procedure, shortened: as §1

[3] = compound: CC1=C2C(=CC=C1)N=C(N(C2=O)C3=CC=CC=C3C)CN4C=NC5=C(N=CN=C54)N
Procedure, shortened: as §1

[4] = compound: Cc1sc2c(c1C)C(c1ccc(Cl)cc1)=N[C@@H](CC(=O)OC(C)(C)C)c1nnc(C)n1-2
Procedure, shortened: as §1

[5] = compound: c1ccc([C@@H]2C[C@H]2NC2CCNCC2)cc1
Procedure, shortened: as §1

Measured: log2 fold change

CEP128 (UniProt Q6ZU80)
inactive: [1] -0.039 | [2] 0.099 | [3] 0.216 | [4] 0.104 | [5] 0.041

CERS2 (UniProt Q96G23)
inactive: [1] -0.033 | [2] 0.035 | [3] -0.012 | [4] -0.036 | [5] 0.048

CHMP4C (UniProt Q96CF2)
inactive: [1] -0.002 | [2] 0.169 | [3] 0.045 | [4] 0.051 | [5] 0.03

CDCA3 (UniProt Q99618)
inactive: [1] 0.009 | [2] -0.066 | [3] 0.027 | [4] 0 | [5] 0.025

CDKN2AIP (UniProt Q9NXV6)
inactive: [1] -0.036 | [2] -0.044 | [3] -0.008 | [4] 0.021 | [5] -0.014

CHAMP1 (UniProt Q96JM3)
inactive: [1] -0.073 | [2] 0.044 | [3] 0.022 | [4] -0.051 | [5] -0.006

CGGBP1 (UniProt Q9UFW8)
inactive: [1] -0.055 | [2] -0.035 | [3] 0.017 | [4] 0.012 | [5] 0.048

CDK5RAP3 isoform 4 (UniProt Q96JB5)
inactive: [1] -0.042 | [2] 0.054 | [3] 0.099 | [4] 0 | [5] -0.05

CDK13 (UniProt Q14004)
inactive: [1] 0.031 | [2] 0.019 | [3] -0.017 | [4] 0.161 | [5] -0.004

CHML (UniProt P26374)
inactive: [1] -0.044 | [2] 0.075 | [3] 0.065 | [4] -0.036 | [5] 0.007

CDC73 (UniProt Q6P1J9)
inactive: [1] -0.098 | [2] -0.572 | [3] 0.059 | [4] 0.023 | [5] -0.217

CDC42 (UniProt P60953)
inactive: [1] 0.074 | [2] -0.001 | [3] -0.04 | [4] -0.009 | [5] -0.033

CDCP1 (UniProt Q9H5V8)
inactive: [1] -0.033 | [2] 0.055 | [3] -0.005 | [4] 0.021 | [5] 0.131

CDK2AP1 (UniProt O14519)
inactive: [1] 0.059

CHMP3 (UniProt Q9Y3E7)
inactive: [1] -0.016 | [2] 0.073 | [3] 0.115 | [4] -0.015 | [5] -0.039

CDK5RAP1 (UniProt Q96SZ6)
inactive: [1] 0.056 | [2] 0.029 | [3] 0.149 | [4] 0.028 | [5] -0.023

CENPO (UniProt Q9BU64)
inactive: [1] -0.125 | [2] 0.01 | [3] 0.199 | [4] -0.169 | [5] -0.036

CDC42SE1 (UniProt Q9NRR8)
inactive: [1] -0.151 | [2] 0.016 | [3] 0.088 | [4] -0.076 | [5] -0.007

CHD8 (UniProt Q9HCK8)
inactive: [1] 0.122

CDKN2C (UniProt P42773)
inactive: [1] -0.015 | [2] 0.312 | [3] 0.077 | [4] -0.057 | [5] -0.171

CHERP (UniProt Q8IWX8)
inactive: [1] -0.023 | [2] -0.07 | [3] 0.008 | [4] 0.101 | [5] 0.018

CEP170 isoform 3 (UniProt Q5SW79)
inactive: [1] 0.204

CFDP1 (UniProt Q9UEE9)
inactive: [1] 0.06 | [2] 0.017 | [3] 0.058 | [4] -0.01 | [5] 0.03

CENPS (UniProt Q8N2Z9)
inactive: [1] -0.004 | [2] 0.046 | [3] 0.094 | [4] -0.014 | [5] -0.047

CDC42EP1 (UniProt Q00587)
inactive: [1] -0.067 | [2] 0.107 | [3] 0.041 | [4] 0.043 | [5] -0.029

CDC42BPB (UniProt Q9Y5S2)
inactive: [1] -0.114 | [2] -0.031 | [3] 0.009 | [4] 0.025 | [5] -0.004

CHD6 (UniProt Q8TD26)
inactive: [1] 0.047 | [2] 0.077 | [3] -0.001 | [4] 0.21 | [5] 0.248

CDK1 (UniProt P06493)
inactive: [1] -0.019 | [2] 0.036 | [3] 0.003 | [4] 0.019 | [5] 0.037

CFL2 (UniProt Q9Y281)
inactive: [1] 0.01 | [2] 0.007 | [3] 0.178 | [4] -0.04 | [5] -0.055

CEP83 (UniProt Q9Y592)
inactive: [1] 0.131

CFAP298 (UniProt P57076)
inactive: [1] -0.032 | [2] -0.053 | [3] 0.133 | [4] 0.122 | [5] 0

CHCHD6 (UniProt Q9BRQ6)
inactive: [1] 0.242 | [2] 0.446 | [3] 0.262 | [4] 0.012 | [5] 0.05

CDK7 (UniProt P50613)
inactive: [1] 0.009 | [2] 0.004 | [3] 0.011 | [4] 0.028 | [5] 0.054

CHKA (UniProt P35790)
inactive: [1] -0.055 | [2] -0.023 | [3] 0.124 | [4] -0.004 | [5] 0.19

CFAP20 (UniProt Q9Y6A4)
inactive: [1] 0.059 | [2] -0.035 | [3] -0.016 | [4] 0.065 | [5] 0.041

CDKN1C (UniProt P49918)
inactive: [1] -0.227

CERS6 isoform 2 (UniProt Q6ZMG9)
inactive: [1] 0.006 | [2] 0.058 | [3] -0.046 | [4] -0.051 | [5] 0.016

CELF1 isoform 4 (UniProt Q92879)
inactive: [1] -0.076 | [2] -0.002 | [3] 0.096 | [4] -0.035 | [5] -0.045

CENPH (UniProt Q9H3R5)
inactive: [1] 0.009 | [2] -0.208 | [3] -0.029 | [4] 0.027 | [5] -0.035

CEMIP2 (UniProt Q9UHN6)
inactive: [1] -0.03 | [2] -0.017 | [3] 0.08 | [4] -0.04 | [5] 0.081

CHCHD3 (UniProt Q9NX63)
inactive: [1] -0.005 | [2] 0.016 | [3] 0.054 | [4] -0.021 | [5] -0.03

Five consecutive entries out of the list so far:
CFAP20 (UniProt Q9Y6A4)
inactive: [1] 0.059 | [2] -0.035 | [3] -0.016 | [4] 0.065 | [5] 0.041

CDKN1C (UniProt P49918)
inactive: [1] -0.227

CERS6 isoform 2 (UniProt Q6ZMG9)
inactive: [1] 0.006 | [2] 0.058 | [3] -0.046 | [4] -0.051 | [5] 0.016

CELF1 isoform 4 (UniProt Q92879)
inactive: [1] -0.076 | [2] -0.002 | [3] 0.096 | [4] -0.035 | [5] -0.045

CENPH (UniProt Q9H3R5)
inactive: [1] 0.009 | [2] -0.208 | [3] -0.029 | [4] 0.027 | [5] -0.035

The listing continues:

CDC42SE2 (UniProt Q9NRR3)
inactive: [1] -0.039 | [2] 0.175 | [3] -0.012 | [4] -0.102 | [5] 0.081

CDCA5 (UniProt Q96FF9)
inactive: [1] -0.043 | [2] 0.022 | [3] 0.034 | [4] 0.054 | [5] -0.031

CHKB (UniProt Q9Y259)
inactive: [1] -0.043 | [2] -0.041 | [3] 0.044 | [4] 0.128 | [5] 0.135

CEP192 (UniProt Q8TEP8)
inactive: [1] -0.036 | [2] 0.073 | [3] 0.029 | [4] -0.028 | [5] 0.084

CENPF (UniProt P49454)
inactive: [1] 0.021 | [2] -0.027 | [3] 0.007 | [4] 0.002 | [5] 0.041

CERT isoform 3 (UniProt Q9Y5P4)
inactive: [1] 0.102 | [2] 0.029 | [3] 0.066 | [4] 0.14 | [5] -0.028

CHD4 isoform 2 (UniProt Q14839)
inactive: [1] -0.065 | [2] 0 | [3] 0.021 | [4] 0.049 | [5] 0.032

CETN2 (UniProt P41208)
inactive: [1] 0.027 | [2] 0.046 | [3] -0.012 | [4] 0.06 | [5] 0.08

CHMP1B (UniProt Q7LBR1)
inactive: [1] -0.076 | [2] 0.021 | [3] 0.012 | [4] 0 | [5] -0.011

CHEK1 (UniProt O14757)
inactive: [1] 0.006 | [2] 0.065 | [3] 0.087 | [4] 0.025 | [5] 0.01

CENPE (UniProt Q02224)
inactive: [1] -0.005 | [2] -0.139 | [3] 0.049 | [4] -0.001 | [5] -0.362

CFL1 (UniProt P23528)
inactive: [1] -0.024 | [2] -0.007 | [3] -0.039 | [4] -0.052 | [5] -0.036

CHMP2B (UniProt Q9UQN3)
inactive: [1] 0.008 | [2] 0.032 | [3] -0.017 | [4] -0.013 | [5] -0.007

CELF2 isoform 3 (UniProt O95319)
inactive: [1] -0.005 | [2] 0.119 | [3] 0.013 | [4] 0.071 | [5] -0.014

CHD3 isoform 3 (UniProt Q12873)
inactive: [1] -0.104 | [2] 0.038 | [3] 0.069 | [4] -0.038 | [5] 0.087

Reference: the supplement of paper PMC10849652
